# Assay results published in the odorant receptor screen of Mainland et al. (2015).
# Values joined by “and” are separate entries in the source; they are usually repeats but may differ in a detail not shown here. Equal values may be shown once. This is one part of the list. Each value is one well over the wells without odorant, computed here; the data are noisy.
# Assays:
# Assay in all cases: odorant receptor activation (CRE luciferase / Renilla) (fold of no-odor wells); higher = more activation
# Conditions in all cases: 100 µM
# OR5M1 S282T clone 1208 = tested on: OR5M1 S282T clone 1208
# OR5M10 V69L clone 1125 = tested on: OR5M10 V69L clone 1125
# OR5M11 clone 1236 = tested on: OR5M11 clone 1236
# OR5M8 clone 1523 = tested on: OR5M8 clone 1523
# OR5M9 clone 1194 = tested on: OR5M9 clone 1194
# OR5P2 clone 1185 = tested on: OR5P2 clone 1185
# OR5P3 clone 1115 = tested on: OR5P3 clone 1115
# OR5R1 clone 1162 = tested on: OR5R1 clone 1162
# OR5T1 clone 1399 = tested on: OR5T1 clone 1399
# OR5T1 clone 1249 = tested on: OR5T1 clone 1249
SMILES,odorant receptor activation (OR5M1 S282T clone 1208),odorant receptor activation (OR5M10 V69L clone 1125),odorant receptor activation (OR5M11 clone 1236),odorant receptor activation (OR5M8 clone 1523),odorant receptor activation (OR5M9 clone 1194),odorant receptor activation (OR5P2 clone 1185),odorant receptor activation (OR5P3 clone 1115),odorant receptor activation (OR5R1 clone 1162),odorant receptor activation (OR5T1 clone 1399),odorant receptor activation (OR5T1 clone 1249)
CC1COCc2cc3c(cc21)C(C)(C)C(C)C3(C)C (centres undefined) [galaxolide],4.69,0.797 and 0.858,0.436 and 0.901,4.21 and 4.59,3.88,3.64,1.46,0.717,3.24,
CC12C=CCC1C1CCC3=CC(=O)CCC3(C)C1CC2 (centres undefined) [androstadienone],1.14,,,0.899 and 1.31,1.17,1.08,1.16,0.983,0.865,0.991 and 1.17
C=CCc1ccc(OC)c(OC)c1 [eugenol methyl ether],1.23,1.5,1.31,1.25,1.42,1.91,2.23,1.87,1.18,1.52
C=C(C)C1CC=CCC1 (centres undefined) [r-limonene],0.996 and 0.43,1.19,1.08,0.891 and 0.743 and 0.955,0.842 and 0.344,,1.55 and 1.57,0.931 and 0.408,1.47 and 0.853,
CC12C=CCC1C1CCC3CC(=O)CCC3(C)C1CC2 (centres undefined) [androstenone],8.83,,,1.14,6.91,5.83,2.61,6.16,1.03,1.34
COC(=O)c1ccccc1O [methyl salicylate],0.843,0.945,0.817,1.14,0.921,0.959,2.81,0.853,1.18,0.985
CC(C)CC(=O)O [isovaleric acid],0.961,0.686,1.17,0.973,1.15,1.17,1.39,1.17,0.717,0.944
CC(C)(C)c1ccc(CCC=O)cc1 [bourgeonal],0.778,,,1.07,0.732,0.879,1.2,0.861,0.179,0.654
CC(C)(O)CCCC1=CCC(C=O)CC1 (centres undefined) [lyral],,0.99,0.989,,,,,,,
COc1cc(C)ccc1O [2-methoxy-4-methylphenol],0.893,0.975,0.987,0.778,1.13,0.931,5.93,1.31,0.939,1.24
CC1=NC(C)SC1C (centres undefined),0.705,,,0.755 and 1.14,0.649,0.611,1.05,0.579,0.956,1.09
"CC1CCC(C(C)C)C(O)C1 (single isomer, unassigned; (-)) [(-)-menthol]",0.869,0.976,1.35,2.99,0.966,0.943,13.3,1.1,0.624,0.972
CCCCCCCC=O [octyl aldehyde],0.906,1.14,0.869,1.1,0.886,1.26,1.3,1.11,0.905,1.36
CC(=O)c1ccccc1 [acetophenone],0.926,,,0.593 and 0.803,0.782,0.611,4.74,1.09,0.875,1.1
CC(=O)OC1CC2CCC1(C)C2(C)C (centres undefined) [isobornyl acetate],1.07,0.66,0.769,0.806 and 1.22,0.915,1.05,0.745,1.03,0.815,1.01 and 1.25
CCCCCCCOC(C)=O [heptyl acetate],0.983,1.18,0.98,0.725 and 1.15,1.07,1.13,0.739,0.808,1.06,1.14 and 1.13

# Only odorant receptor activation (OR5T1 clone 1249), for 2 of the compounds above:
SMILES	odorant receptor activation (OR5T1 clone 1249)
COC(=O)c1ccccc1O [methyl salicylate]	0.985
CC(C)CC(=O)O [isovaleric acid]	0.944
